# According to US6911526B2, “Compounds that inhibit the interaction between signal-transducing proteins and the GLGF (PDZ/DHR) domain and uses thereof” (The Trustees of Columbia University in the City of New York, priority 1996, dated 2005):
# Chains of the proteins cited; added tags and fusions are not shown. Residues count along the entry.
# UniProt P25445, residues 26-335: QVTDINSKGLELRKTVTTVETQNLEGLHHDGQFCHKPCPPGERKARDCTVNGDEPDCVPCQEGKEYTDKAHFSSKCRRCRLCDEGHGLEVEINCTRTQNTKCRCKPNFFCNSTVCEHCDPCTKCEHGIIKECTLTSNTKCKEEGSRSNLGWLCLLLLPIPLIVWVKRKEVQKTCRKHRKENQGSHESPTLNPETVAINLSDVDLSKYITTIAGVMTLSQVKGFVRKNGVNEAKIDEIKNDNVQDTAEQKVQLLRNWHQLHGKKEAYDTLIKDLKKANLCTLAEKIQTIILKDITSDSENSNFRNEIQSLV
# in vitro-translated 35S-labeled FAP-1 (from HFAP-10 cDNA) (Q12923, residues 1279-1883): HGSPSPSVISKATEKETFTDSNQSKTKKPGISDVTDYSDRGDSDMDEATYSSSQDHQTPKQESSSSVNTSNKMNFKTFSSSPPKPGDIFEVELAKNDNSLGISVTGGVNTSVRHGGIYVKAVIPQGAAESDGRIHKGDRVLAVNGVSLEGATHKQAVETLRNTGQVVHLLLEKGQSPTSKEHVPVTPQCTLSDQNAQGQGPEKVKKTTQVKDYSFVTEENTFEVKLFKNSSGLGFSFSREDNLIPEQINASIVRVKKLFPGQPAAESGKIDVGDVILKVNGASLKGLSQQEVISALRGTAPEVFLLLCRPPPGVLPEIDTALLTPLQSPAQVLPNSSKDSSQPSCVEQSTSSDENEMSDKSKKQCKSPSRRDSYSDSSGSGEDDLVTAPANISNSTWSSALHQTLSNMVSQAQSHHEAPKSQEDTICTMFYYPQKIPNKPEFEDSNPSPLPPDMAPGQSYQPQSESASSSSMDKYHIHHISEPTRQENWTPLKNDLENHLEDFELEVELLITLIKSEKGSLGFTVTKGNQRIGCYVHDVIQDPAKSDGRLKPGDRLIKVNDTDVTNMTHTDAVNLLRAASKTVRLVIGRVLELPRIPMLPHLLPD
# FAP-1 expressed from plasmid pVP16-31 (VP16 fusion, yeast two-hybrid prey) (Q12923, residues 1350-1470): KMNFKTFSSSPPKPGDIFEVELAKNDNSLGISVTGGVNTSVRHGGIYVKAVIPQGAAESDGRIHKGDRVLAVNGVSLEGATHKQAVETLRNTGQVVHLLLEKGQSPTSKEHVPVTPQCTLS
# No constants are given. Whether binding was seen depends on the method and setting. For part of these data: Binding seen in cells or lysates may run through a third protein. Some binding calls cover weakened binding; strength is not graded here.
# Tests used:
# [1] = molecular target: native Fas from cell extracts of Jurkat T-cells (UniProt P25445); experiment: GST-FAP-1 pull-down from Jurkat cell extracts, Western analysis with anti-Fas antibody
# [2] = molecular target: in vitro-translated 35S-labeled FAP-1 (from HFAP-10 cDNA) (UniProt Q12923); experiment: GST pull-down of in vitro-translated 35S FAP-1
# [3] = molecular target: FAP-1 expressed from plasmid pVP16-31 (VP16 fusion, yeast two-hybrid prey) (UniProt Q12923); experiment: yeast two-hybrid with pVP16-FAP-1
substance,measurement,setting,value
GST-FAP-1 (from UniProt P08515 1-218; Q12923 1279-1883),binding,[1],binds
GST-SLV (from UniProt P08515 1-218),binding,[2],binds
LexA-SLV fusion protein (from UniProt P0A7C2 1-202),binding,[3],binds
